These results are taken from article PMC7465502.

At least one result comes from cells or an extract, where the contact may be indirect. A negative result means that nothing was seen under these conditions. At least one verdict was read from the data and is not stated in words by the source. Where a protein sequence is shown, tags need not be part of it. Construct, isoform or probe ends are uncertain for at least one entry.

The target of this data set is T1, Tristetraprolin (TTP) (Homo sapiens) (UniProt P26651).
T1 sequence (looked up): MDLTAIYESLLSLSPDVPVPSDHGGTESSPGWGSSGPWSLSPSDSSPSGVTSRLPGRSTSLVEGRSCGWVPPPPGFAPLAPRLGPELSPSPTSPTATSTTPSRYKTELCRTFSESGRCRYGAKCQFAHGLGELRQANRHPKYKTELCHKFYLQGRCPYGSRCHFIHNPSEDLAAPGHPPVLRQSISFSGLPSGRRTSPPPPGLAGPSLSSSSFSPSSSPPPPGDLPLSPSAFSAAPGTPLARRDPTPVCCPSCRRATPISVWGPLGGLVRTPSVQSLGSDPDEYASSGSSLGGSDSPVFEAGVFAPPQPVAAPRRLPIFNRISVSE
Briefly: EMSA. Conditions: RNA EMSA (LightShift Chemiluminescent kit, binding buffer composition not given): 20 fmol biotinylated RNA, 4 ug or 5 ug (Methods) cytoplasmic extract, protein in a lysate after overexpression, residues 1-326, label: biotin.

As to “GCUAAGGUUAAGCAUUAAUUAGCAAGCAGCACCUUGA [mutDR4-EMSA]”, the binding result is reported as “no binding”.
Take “GCUAAGGUUAAUUUAUUAAUUAUUUAAUUUAUUUACCUUG [wtDR4-EMSA]”: the binding result (complex reduced by anti-TTP antibody, not by control antibody) is “binds”.
Turning to “UAGUCAUGGAAGGAUCAGCAUGCAGGUAGUCAUUCCAGG [mutDR5-EMSA]”, the binding result is “no binding”.
For the sequence “UAGUCAUGGAAGGAUCAUUUAUGCAGGUAGUCAUUCCAGG [wtDR5-EMSA]”, the binding result (complex reduced compared to DR4) is given as “binds”.
